In patent publication US9856210B2, “Pharmaceutical composition for prevention and treatment of amyotrophic lateral sclerosis” (Kyoto University, priority 2010, dated 2018):
Some entries share one result that the patent states for a list of compounds.

Tested on: SOD1
Assay: SOD1 protein level (ELISA) in human neuroglioma H4 cell line
Format: cell-based
Details: SOD1 ELISA (FIG. 1B, 2B, 3B)

Compound: O=C(Nc1ccc(C(F)(F)F)cc1)Nc1cccc(F)c1 [UCTP, urea and N-(3-chlorophenyl)-N′-[4-(trifluoromethyl)phenyl]]
- concentration at which SOD1 expression was inhibited: not less than 5 μM

Compound: CNC(=O)c1cc(Oc2ccc(NC(=O)Nc3ccc(Cl)c(C(F)(F)F)c3)cc2)ccn1 [sorafenib]
- concentration at which SOD1 expression was inhibited: not less than 5 μM
